Laboratory results: PubChem BioAssay AID1259314 (Drosophila RNAi Screening Center, 2017)
In all, the deposit lists about 3,100 reagents; shown is a part drawn at random. In the full data, 289 (9.3%) were called active. 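Active includes both higher and lower ATP than plate average; check the z-score sign for direction.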 Names joined by + are all predicted targets of the reagent. No sequences are given here. Not given: the amount of reagent.

Test: 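Modifiers of manganese chloride toxicity in fly cells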 (primary screen)
Cells: Drosophila S2R+ cells
Knock-down reagent: long dsRNA against Drosophila genes
Timing: 5 days (4 days knock-down, then 1 day metal exposure)
Challenge: manganese chloride added to 15 mM for 24 hours
Detection: 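Cellular ATP measured by luciferase light, scaled to the plate mean, averaged across replicates and z-scored over plates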
Scale: mean ATP z-score: higher = more ATP than the plate average, more viable cells under manganese
Call rule: 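Called active when the mean ATP z-score is above 1.5 or below -1.5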
Calls: active = strong ATP change, up or down; inactive = no strong ATP change

With knock-down of beta4GalT7 [DRSC14385] the results were mean ATP z-score 0.534; inactive.
Silencing of alphaKap4 [DRSC09823] came out at: mean ATP z-score -0.453; inactive.
For alphaKap4 [DRSC39588], the entry reads mean ATP z-score -0.191; inactive.
With knock-down of VGAT [DRSC07160], the screen gave mean ATP z-score -0.405; inactive.
CG17660 [DRSC00513] scored mean ATP z-score -0.56; inactive.
For CG17660 [DRSC39552], the entry reads mean ATP z-score -0.202; inactive.
After knock-down of Tsp96F [DRSC14147], the record shows mean ATP z-score 2.54; active.
With knock-down of Tsp96F [DRSC39893], the record shows mean ATP z-score 0.018; inactive.
After knock-down of CG7744 [DRSC07036] the results were mean ATP z-score 0.0649; inactive.
CG7744 [DRSC39431] scored mean ATP z-score -1.22; inactive.
After knock-down of teq [DRSC11301], the record shows mean ATP z-score -1.19; inactive.
teq [DRSC11302] gave mean ATP z-score -0.671; inactive.
Silencing of trpl [DRSC06728] resulted in: mean ATP z-score -0.549; inactive.
With knock-down of trpl [DRSC25485] the results were mean ATP z-score 0.903; inactive.
Knock-down of bw [DRSC04005] came out at: mean ATP z-score 0.224; inactive.
bw [DRSC04677] gave mean ATP z-score 1.16; inactive.
Against CG4073 [DRSC15542] the deposit lists mean ATP z-score 0.923; inactive.
For nAChRalpha4 [DRSC11925], the values are mean ATP z-score 0.381; inactive.
nAChRalpha4 [DRSC26817] showed mean ATP z-score 0.205; inactive.
For CG13016 [DRSC06271], the values are mean ATP z-score -0.78; inactive.
Knock-down of CG13016 [DRSC39858] gave: mean ATP z-score -1.17; inactive.
Sema5c [DRSC11279] showed mean ATP z-score -1.32; inactive.
Sema5c [DRSC26621] scored mean ATP z-score 0.648; inactive.
After knock-down of CG7084 [DRSC16194], the record shows mean ATP z-score 1.1; inactive.
Against CG7084 [DRSC39839], the values are mean ATP z-score -0.405; inactive.
Sec61gamma [DRSC19570] showed mean ATP z-score 0.757; inactive.
Silencing of Sec61gamma [DRSC25563] came out at: mean ATP z-score 0.595; inactive.
Knock-down of CG14219 [DRSC19576] came out at: mean ATP z-score 1.38; inactive.
Knock-down of CG14219 [DRSC26450] resulted in: mean ATP z-score 0.787; inactive.
After knock-down of put [DRSC17039], the screen gave mean ATP z-score 0; inactive.
Against put [DRSC36611], the values are mean ATP z-score 0.385; inactive.
For put [DRSC36612], the entry reads mean ATP z-score 0.198; inactive.
CG7272 [DRSC10795] scored mean ATP z-score -0.65; inactive.
After knock-down of CG7272 [DRSC39569], the screen gave mean ATP z-score 0.103; inactive.
Depletion of CG12355 [DRSC09381] came out at: mean ATP z-score 0.714; inactive.
After knock-down of CG12355 [DRSC09883] the results were mean ATP z-score -0.719; inactive.
Against ppk21 [DRSC14466], the entry reads mean ATP z-score 0.445; inactive.
Against ppk21 [DRSC39432], the values are mean ATP z-score -0.0222; inactive.
CG7912 [DRSC16343] scored mean ATP z-score -0.858; inactive.
After knock-down of mthl14 [DRSC07865] the results were mean ATP z-score -0.756; inactive.
After knock-down of mthl14 [DRSC39645], the screen gave mean ATP z-score -1.03; inactive.
Cralbp + PGRP-LD + Pmi [DRSC09743] scored mean ATP z-score -1.15; inactive.
Knock-down of CG16781 [DRSC18117] resulted in: mean ATP z-score -0.459; inactive.
Against CG16781 [DRSC28112], the values are mean ATP z-score -0.304; inactive.
For CG31431 [DRSC14589] the deposit lists mean ATP z-score -0.367; inactive.
CG31431 [DRSC39614] gave mean ATP z-score -0.804; inactive.
CG14621 [DRSC20635] scored mean ATP z-score 0.395; inactive.
For CG14621 [DRSC27094] the deposit lists mean ATP z-score 0.714; inactive.
